From article PMC12613626
No constants are given. Whether binding was seen depends on the method and setting. Binding seen in cells or lysates may run through a third protein. Some binding calls cover weakened binding; strength is not graded here. Tags and fused reporters may be left off the sequences shown.

Protein sequences, listed by entry. Tags and fused reporters are not part of them.
UniProt Q13562: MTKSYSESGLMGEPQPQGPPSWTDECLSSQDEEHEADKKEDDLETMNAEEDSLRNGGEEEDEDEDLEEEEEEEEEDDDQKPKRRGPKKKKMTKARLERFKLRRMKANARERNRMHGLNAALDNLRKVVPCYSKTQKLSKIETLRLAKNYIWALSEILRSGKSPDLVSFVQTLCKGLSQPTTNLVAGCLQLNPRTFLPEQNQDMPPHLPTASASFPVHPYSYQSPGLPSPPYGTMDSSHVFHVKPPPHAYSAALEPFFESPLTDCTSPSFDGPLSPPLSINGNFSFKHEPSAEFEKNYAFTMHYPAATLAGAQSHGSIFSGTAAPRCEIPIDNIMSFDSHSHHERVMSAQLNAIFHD

T1: 3×Flag-labeled Neurog3 overexpressed in Panc-1 cells (UniProt Q9Y4Z2)
T1 sequence: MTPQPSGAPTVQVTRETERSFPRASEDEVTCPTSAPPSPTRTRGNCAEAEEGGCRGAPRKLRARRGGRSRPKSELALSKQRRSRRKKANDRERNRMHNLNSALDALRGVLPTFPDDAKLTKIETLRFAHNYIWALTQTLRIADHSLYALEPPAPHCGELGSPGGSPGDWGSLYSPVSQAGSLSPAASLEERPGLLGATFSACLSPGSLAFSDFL


Key:
[1] = target: T1, 3×Flag-labeled Neurog3 overexpressed in Panc-1 cells; experiment: co-IP; Lysates of OE-NeuroD1-GFP or OE-Neurog3-3×Flag Panc-1 cells; precipitation with the antibody to the tagged protein; partner detected by Western blotting; NETN buffer, Protein A/G agarose, 4 h at 4 °C
[2] = target: GFP-labeled NeuroD1 (neurogenic differentiation factor 1) overexpressed in Panc-1 cells (UniProt Q13562); experiment: as above

binding [1] | binding [2] | Molecule
binds | – | NeuroD1 in Neurog3-3×Flag-overexpressing Panc-1 cells (from UniProt Q13562 1-356)
– | binds | Neurogenin 3 (Neurog3) in NeuroD1-GFP-overexpressing Panc-1 cells (protein, UniProt Q9Y4Z2 1-214) MTPQPSGAPTVQVTRETERSFPRASEDEVTCPTSAPPSPTRTRGNCAEAEEGGCRGAPRKLRARRGGRSRPKSELALSKQRRSRRKKANDRERNRMHNLNSALDALRGVLPTFPDDAKLTKIETLRFAHNYIWALTQTLRIADHSLYALEPPAPHCGELGSPGGSPGDWGSLYSPVSQAGSLSPAASLEERPGLLGATFSACLSPGSLAFSDFL
